# From article doi:10.1101/2023.05.01.538937
# Sequences of proteins named here, by UniProt entry; tags and fusion partners are left off.
# UniProt P03107, whole entry: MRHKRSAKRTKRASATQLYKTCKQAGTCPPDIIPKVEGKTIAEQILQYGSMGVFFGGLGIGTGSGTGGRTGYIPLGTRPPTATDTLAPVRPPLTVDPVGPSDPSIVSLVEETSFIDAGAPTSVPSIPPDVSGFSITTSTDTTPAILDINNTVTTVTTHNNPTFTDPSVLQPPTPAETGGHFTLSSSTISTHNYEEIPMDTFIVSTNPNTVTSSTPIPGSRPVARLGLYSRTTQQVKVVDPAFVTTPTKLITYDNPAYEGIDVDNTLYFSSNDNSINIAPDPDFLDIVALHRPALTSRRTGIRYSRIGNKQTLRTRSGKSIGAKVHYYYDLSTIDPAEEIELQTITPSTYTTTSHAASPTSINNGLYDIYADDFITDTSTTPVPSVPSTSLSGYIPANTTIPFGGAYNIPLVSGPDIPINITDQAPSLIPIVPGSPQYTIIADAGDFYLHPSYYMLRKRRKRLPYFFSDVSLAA
# Results are given in words; binding and its absence hold for the method and conditions named. In cells and extracts the contact can be indirect. Some results given as binding are weak or reduced against the parent protein; the word gives no strength.
# How the values were obtained:
# [1] = target: T1, Rab9a (human (endogenous in HeLa S3)) (UniProt P51151); test: co-IP
# T1 sequence: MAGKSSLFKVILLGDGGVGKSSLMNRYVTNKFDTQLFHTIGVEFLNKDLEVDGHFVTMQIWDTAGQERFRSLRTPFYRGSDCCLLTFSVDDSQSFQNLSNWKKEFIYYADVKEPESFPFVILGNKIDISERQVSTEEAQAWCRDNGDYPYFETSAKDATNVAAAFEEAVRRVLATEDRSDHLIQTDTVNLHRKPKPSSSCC
# [2] = target: T1, Rab9a (human (endogenous in HeLa S3)); test: proximity ligation
Substance,binding [1],binding [2]
HPV16 L2 protein with a C-terminal 3xFLAG tag (from UniProt P03107 1-473),binds,
HPV16 PsV L2-3XFLAG (from UniProt P03101 1-505; P03107 1-473) (complex),,binds
HPV16 PsV containing HA-tagged wild-type L2 (from UniProt P03101 1-505; P03107 1-473) (complex),,binds
